# This is one part of the list. For some of these results: Construct or isoform of the protein are uncertain.
# Assays:
# Test in all cases: protein microarray (ProtoArray v5.0), streptavidin-Alexa Fluor 647
# Settings in all cases: 3'-biotin; 20 mM Tris (pH 7.5), 5 mM MgCl2, 100 mM KCl, 0.1% Tween-20, A/T-rich and random oligonucleotide blockers; temperature not stated; high values mean tight binding
# CLDN2 (human) = tested on: CLDN2 (human)
# CLIP4 = molecular target: T1, CLIP4 (UniProt Q8N3C7)
# T1 sequence: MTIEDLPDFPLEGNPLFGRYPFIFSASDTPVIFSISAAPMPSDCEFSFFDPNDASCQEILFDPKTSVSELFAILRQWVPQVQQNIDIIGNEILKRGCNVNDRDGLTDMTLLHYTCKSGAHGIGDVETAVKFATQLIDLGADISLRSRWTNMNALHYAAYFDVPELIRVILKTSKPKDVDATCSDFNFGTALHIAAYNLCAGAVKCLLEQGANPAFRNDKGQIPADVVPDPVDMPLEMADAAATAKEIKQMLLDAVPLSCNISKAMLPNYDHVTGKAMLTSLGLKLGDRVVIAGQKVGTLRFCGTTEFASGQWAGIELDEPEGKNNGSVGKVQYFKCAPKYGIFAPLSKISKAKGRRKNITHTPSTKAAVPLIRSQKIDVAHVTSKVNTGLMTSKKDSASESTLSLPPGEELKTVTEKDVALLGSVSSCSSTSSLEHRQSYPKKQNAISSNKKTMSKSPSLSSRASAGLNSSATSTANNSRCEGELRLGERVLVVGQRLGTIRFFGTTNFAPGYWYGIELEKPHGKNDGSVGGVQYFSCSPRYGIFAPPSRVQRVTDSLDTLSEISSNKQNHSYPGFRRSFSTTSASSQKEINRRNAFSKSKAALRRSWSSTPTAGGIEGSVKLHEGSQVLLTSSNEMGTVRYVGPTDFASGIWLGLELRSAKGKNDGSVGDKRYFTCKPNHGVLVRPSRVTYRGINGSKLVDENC
# CLTA = molecular target: T2, CLTA (UniProt P09496)
# T2 sequence: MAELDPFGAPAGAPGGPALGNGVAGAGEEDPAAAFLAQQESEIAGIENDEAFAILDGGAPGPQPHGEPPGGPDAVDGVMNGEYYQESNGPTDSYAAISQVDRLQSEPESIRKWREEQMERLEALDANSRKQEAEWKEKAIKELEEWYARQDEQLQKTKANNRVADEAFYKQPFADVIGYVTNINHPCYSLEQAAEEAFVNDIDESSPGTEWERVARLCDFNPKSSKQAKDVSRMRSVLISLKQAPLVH
# CLTB (human) = tested on: CLTB (human)
# CLUL1 (human) = tested on: CLUL1 (human)
# CNIH (human) = tested on: CNIH (human)
# CNNM1 (human) = tested on: CNNM1 (human)
# CNR2 (human) = tested on: CNR2 (human)
# COASY (human) = tested on: COASY (human)
# COBRA1 (human) = tested on: COBRA1 (human)
sequence,measurement,setting,value
GGGGACAGGGGTATGGGGAGGGG [G4-3 biotinylated (CtG)],binding signal,CLDN2 (human),-0.329 z-score
same,binding signal,CLIP4,4.34 z-score
same,binding signal,CLTA,-0.331 z-score
same,binding signal,CLTB (human),-0.335 z-score
same,binding signal,CLUL1 (human),-0.321 z-score
same,binding signal,CNIH (human),-0.314 z-score
same,binding signal,CNNM1 (human),-0.331 z-score
same,binding signal,CNR2 (human),-0.305 z-score
same,binding signal,COASY (human),-0.335 z-score
same,binding signal,COBRA1 (human),-0.327 z-score

# — PMC5996148
